PMC12543280
Positions count from the first letter of the chain named. Results are given in words; binding and its absence hold for the method and conditions named. Binding seen in cells or lysates may run through a third protein. A yes stands for co-enrichment or nearness to the bait. Other partners may have been found. Sequences can lack the tags named with a protein.

Amino acid sequences for entries named in this document (tags omitted).
UniProt P48727: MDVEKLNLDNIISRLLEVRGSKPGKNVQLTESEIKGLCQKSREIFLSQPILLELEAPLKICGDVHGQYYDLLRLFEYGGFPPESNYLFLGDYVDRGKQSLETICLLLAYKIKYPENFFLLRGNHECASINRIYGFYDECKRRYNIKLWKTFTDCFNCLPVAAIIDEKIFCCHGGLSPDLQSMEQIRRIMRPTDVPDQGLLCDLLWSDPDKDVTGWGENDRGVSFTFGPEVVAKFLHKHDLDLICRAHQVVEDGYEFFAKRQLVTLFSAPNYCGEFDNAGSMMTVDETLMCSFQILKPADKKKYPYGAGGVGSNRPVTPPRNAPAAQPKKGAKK

How the values were obtained:
[1] = biological target: T1, C. elegans APE-1(H591Y), endogenous, tagged with 3xflag (and GFP) (C. elegans) (UniProt Q9XVN3); assay: affinity purification with mass spectrometry; 3xflag immunoprecipitation (M2 magnetic flag beads, elution with 3xflag peptide) from whole-worm lysates; MudPIT analysis
T1 sequence: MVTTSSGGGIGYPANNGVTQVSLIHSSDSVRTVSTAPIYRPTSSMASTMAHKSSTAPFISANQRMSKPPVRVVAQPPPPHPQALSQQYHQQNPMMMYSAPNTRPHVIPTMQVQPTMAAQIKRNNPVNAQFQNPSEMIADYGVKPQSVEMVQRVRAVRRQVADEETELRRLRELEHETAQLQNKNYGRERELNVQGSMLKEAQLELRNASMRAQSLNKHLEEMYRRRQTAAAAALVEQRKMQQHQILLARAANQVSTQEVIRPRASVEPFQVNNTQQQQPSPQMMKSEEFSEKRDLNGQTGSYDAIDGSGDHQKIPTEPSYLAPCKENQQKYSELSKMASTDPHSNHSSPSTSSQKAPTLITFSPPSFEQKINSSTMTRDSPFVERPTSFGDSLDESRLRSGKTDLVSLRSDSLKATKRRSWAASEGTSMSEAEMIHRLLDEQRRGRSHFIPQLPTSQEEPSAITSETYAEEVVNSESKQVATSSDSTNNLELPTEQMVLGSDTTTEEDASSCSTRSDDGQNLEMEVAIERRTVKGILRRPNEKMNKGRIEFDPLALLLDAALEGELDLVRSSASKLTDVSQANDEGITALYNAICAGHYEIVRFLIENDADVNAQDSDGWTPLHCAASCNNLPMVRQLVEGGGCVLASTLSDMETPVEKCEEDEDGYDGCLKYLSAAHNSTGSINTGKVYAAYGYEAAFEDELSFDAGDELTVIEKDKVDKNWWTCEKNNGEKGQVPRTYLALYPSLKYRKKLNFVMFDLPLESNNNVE

[2] = biological target: T2, C. elegans APE-1(N583K), endogenous, tagged with 3xflag (and GFP) (C. elegans) (UniProt Q9XVN3); assay: as above
T2 sequence: T1 sequence with N583K, Y591H

binding [1]: binds | binding [2]: binds
Substance: C. elegans GSP-2 (PP1 homolog) in whole-worm lysates of the MudPIT experiment (from UniProt P48727 1-333) (enzyme)
